Source: publication PMC7081327
No constants are given. Whether binding was seen depends on the method and setting. Binding seen in cells or lysates may run through a third protein. Some entries that bind do so weakly or less than the wild type.

Molecular target: HA-TAZ, Q9GZV5
Test: co-IP; HEK293 cells with GFP or TEADi; IP lysis buffer 50 mM Tris-Cl pH 7.5, 150 mM NaCl, 10% glycerol, 2 mM MgCl2, 1% NP40; antibody overnight at 4 °C with Dynabeads Protein G; western blot (Fig. 1c)
Conditions: remark: other sources report otherwise

binding: binds
B1: LATS1, O95835 1-1130 (protein)
chain: MKRSEKPEGYRQMRPKTFPASNYTVSSRQMLQEIRESLRNLSKPSDAAKAEHNMSKMSTEDPRQVRNPPKFGTHHKALQEIRNSLLPFANETNSSRSTSEVNPQMLQDLQAAGFDEDMVIQALQKTNNRSIEAAIEFISKMSYQDPRREQMAAAAARPINASMKPGNVQQSVNRKQSWKGSKESLVPQRHGPPLGESVAYHSESPNSQTDVGRPLSGSGISAFVQAHPSNGQRVNPPPPPQVRSVTPPPPPRGQTPPPRGTTPPPPSWEPNSQTKRYSGNMEYVISRISPVPPGAWQEGYPPPPLNTSPMNPPNQGQRGISSVPVGRQPIIMQSSSKFNFPSGRPGMQNGTGQTDFMIHQNVVPAGTVNRQPPPPYPLTAANGQSPSALQTGGSAAPSSYTNGSIPQSMMVPNRNSHNMELYNISVPGLQTNWPQSSSAPAQSSPSSGHEIPTWQPNIPVRSNSFNNPLGNRASHSANSQPSATTVTAITPAPIQQPVKSMRVLKPELQTALAPTHPSWIPQPIQTVQPSPFPEGTASNVTVMPPVAEAPNYQGPPPPYPKHLLHQNPSVPPYESISKPSKEDQPSLPKEDESEKSYENVDSGDKEKKQITTSPITVRKNKKDEERRESRIQSYSPQAFKFFMEQHVENVLKSHQQRLHRKKQLENEMMRVGLSQDAQDQMRKMLCQKESNYIRLKRAKMDKSMFVKIKTLGIGAFGEVCLARKVDTKALYATKTLRKKDVLLRNQVAHVKAERDILAEADNEWVVRLYYSFQDKDNLYFVMDYIPGGDMMSLLIRMGIFPESLARFYIAELTCAVESVHKMGFIHRDIKPDNILIDRDGHIKLTDFGLCTGFRWTHDSKYYQSGDHPRQDSMDFSNEWGDPSSCRCGDRLKPLERRAARQHQRCLAHSLVGTPNYIAPEVLLRTGYTQLCDWWSVGVILFEMLVGQPPFLAQTPLETQMKVINWQTSLHIPPQAKLSPEASDLIIKLCRGPEDRLGKNGADEIKAHPFFKTIDFSSDLRQQSASYIPKITHPTDTSNFDPVDPDKLWSDDNEEENVNDTLNGWYKNGKHPEHAFYEFTFRRFFDDNGYPYNYPKPIEYEYINSQGSEQQSDEDDQNTGSEIKNRDLVYV
